Reference: patent US20060211673A1, “Modulation of neurodegenerative diseases through the estrogen receptor” (ALSGEN, LLC, priority 2005, published 2006)
At least one compound was matched to its structure with a doubt left.

How the values were obtained:
[1] = test system: SOD-1 protein; assay: SOD-1 ELISA on lysates of HeLa cells after 72 hours of incubation with drug; type: cell-based, human; settings: FIG. 1
Procedure: Briefly, cells were maintained in Dulbecco's Minimal Essential Medium, with high glucose, supplemented with glutamine, 4 mM, certified fetal bovine serum, 10%, and penicillin, streptomycin, and nystatin (all from Invitrogen). Incubation conditions were 37 degrees and 99% relative humidity, with CO2 at 5%. Cultures were passaged when they reached 90% confluence. For pharmacological experiments, cells were plated into sterile tissue culture treated 96 well plates at a density of 3,500 cells/well in 150 μl medium. After plating and 6 hours for attachment, drugs were added to the medium in a concentration of 10 μM. Following 72 hours of incubation with the drugs, the cells were photographed at 100× using an inverted microscope and digital camera, so that cytotoxicity could be evaluated. […] The plate was then shaken gently for 5 seconds and the absorbance at 450 mn read on a Tecan Plate reader. Absorbance from each sample were compared to standard curve of purified recombinant human SOD-1 assayed on the same ELISA plate, and SOD-1 immunoreactivity (ng/ml) was estimated by comparison with the standard curve. […] The total protein of the lysates was determined by Bradford assay as described in Example 1 (iv). […]

[2] = test system: SOD-1 mRNA; assay: SOD-1 mRNA by RT-PCR in blood of the SOD-93A murine model for ALS; type: in vivo; settings: SOD-93A mice, ip 1 or 10 mg/kg for 14 days, lymphocyte/blood samples, p<0.05, FIG. 2
Procedure: The effects of the estrogen receptor modulating agent (e.g., Estradiol), and analogs thereof described in Examples 2 were tested in vivo in the SOD-93A murine model for ALS, and a reduction in SOD-1 levels was measured. The inhibition of RNA expression was monitored by isolated blood samples from a mouse pre- and post introduction of the compound (estradiol benzoate) using standard RT-PCR techniques. The expression of the SOD-1 protein was determined using Western blot techniques with an anti-SOD-1 antibody from Sigma. […] The results are shown as a % of internal control, 18S rRNA.

C[C@]12CC[C@@H]3c4ccc(O)cc4CC[C@H]3[C@@H]1CC[C@@H]2O [Estradiol]
levels of SOD-1 protein [1]: significantly reduced
SOD-1 mRNA (% of internal control, 18S rRNA) [2]: significantly decreased
